Results published in ChEMBL document CHEMBL5550168, “Structure-based design of multitargeting ChEs-MAO B inhibitors based on phenyl ring bioisosteres: AChE/BChE selectivity switch and drug-like characterization” (Eur J Med Chem, 2024).

Assay: in vitro
Details: mouse

COc1cc2c(cc1OC)C(=O)C(CC1CCN(Cc3ccccc3)CC1)C2 (stereo unspecified) [DONEPEZIL]
Papp at 2 h, 20 µM: 8.9 ×10⁻⁶ cm/s
